Experimental data taken from PubChem BioAssay AID1487 (National Center for Advancing Translational Sciences (NCATS), 2009).
This is one part of the list. Further columns of the screen follow, without active or inactive calls. Compounds called inactive in the main read-out are mostly missing here. The note in brackets gives the kind of curve behind each potency; many fits are weak.

Assay: qHTS Assay for Modulators of Lamin A Splicing
Conditions: HeLa LMNA splicing GFP/RFP minigene ratio, 48 h
Method in brief: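 Read-out is the ratio of GFP to DsRed2 object intensity, acquired by 488 nm laser-scanning cytometry on HeLa lamin A-EGFP minigene reporter cells. Compound incubation 48 hrs at 37 °C in Opti-MEM with 2% FBS; DMSO 0.5% final.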

[1] = measured here: RFP viability control channel
[2] = measured here: GFP splicing reporter channel

SMILES | AC50 [1] | AC50 [2]
O=C(COC(=O)c1cnccn1)c1ccc(OC(=O)c2ccccc2)cc1 | 0.794 µM [rising, partial curve] | 
O=c1oc2c(CN3CCCC3)c(O)ccc2cc1-c1ccccc1 |  | 0.158 µM [rising, full curve, poor fit]
COC(=O)c1ccc(C)c(NS(=O)(=O)c2ccc3c(c2)OCCO3)c1 | 12.6 µM [rising, partial curve, poor fit] | 
CC1(C)Cc2cccc(C(=O)Nc3ccncc3)c2O1 | 35.5 µM [falling, single point] | 35.5 µM [falling, single point]
CCOc1ccccc1-c1nc(-c2ccc(NC(=O)Cc3ccccc3OC)cc2)no1 | 20 µM [rising, single point] | 
CCN(CC)C(=O)c1cc2sc3ccccc3c2s1 | 25.1 µM [rising, partial curve] | 20 µM [rising, single point]
COc1ccc(CC(=O)Nc2ccc(N3CCCCC3)cc2)cc1 |  | 10 µM [falling, partial curve, poor fit]
CS(=O)(=O)Nc1cccc(-c2nc(Nc3ccc(F)cc3)c3ccccc3n2)c1 | 35.5 µM [falling, single point] | 25.1 µM [falling, single point]
COc1cc(C(=O)N2C(=O)c3cccc(N)c3C2=O)cc(OC)c1OC | 0.00316 µM [rising, full curve, poor fit] | 0.00355 µM [rising, full curve, poor fit]
COc1ccc(NC(=O)c2c(NCc3cccs3)sc3c2CCCC3)cc1 | 22.4 µM [rising, single point] | 
O=C(CN1C(=O)CCC1=O)NCC12CC3CC(CC(C3)C1)C2 | 6.31 µM [rising, full curve, poor fit] | 6.31 µM [rising, full curve, poor fit]
COc1ccccc1-c1nnc(NC(=O)C(C)SC2=NCCS2)s1 (centres undefined) | 11.2 µM [rising, partial curve] | 
CC1CCC(NC(=O)c2ccc(/C=C3\Oc4ccccc4N(C)C3=O)cc2)CC1 (centres undefined) |  | 2.82 µM [falling, full curve]
Cc1cccc(NS(=O)(=O)c2cc(C(=O)OCC(=O)Nc3cc(C)on3)ccc2C)c1 | 7.94 µM [rising, partial curve] | 
O=C(Nc1ccc(S(=O)(=O)NC2CCCCC2)cc1)c1ccco1 | 4.47 µM [rising, partial curve, poor fit] | 
Cc1ccc(-n2ncc3c(N(CC(C)C)CC(C)C)ncnc32)c(C)c1 | 35.5 µM [rising, single point] | 
CSc1ccc(/C=C/c2cc(=O)c3ccccc3[nH]2)cc1 | 10 µM [rising, partial curve] | 4.47 µM [rising, full curve]
CC(=O)N1CCCc2cc(S(=O)(=O)NCc3ccc(C)cc3)ccc21 | 15.8 µM [rising, partial curve, poor fit] | 
CN(Cc1cc(=O)n2ccsc2n1)Cc1nc2ccccc2c(=O)[nH]1 | 0.0708 µM [falling, full curve, poor fit] | 0.0355 µM [falling, full curve, poor fit]
CC1=NN(C(=O)COc2ccc(C)c(C)c2)C(O)(c2ccc(Cl)cc2)C1 (centres undefined) | 22.4 µM [rising, single point] | 12.6 µM [rising, partial curve]
Cc1ccc(NC(=O)c2c(-c3c(F)cccc3Cl)noc2C)cc1F | 11.2 µM [rising, single point] | 7.08 µM [rising, partial curve]
Cc1cc2nc(SCCOC(=O)Nc3ccccc3)nc(C)c2cc1C | 14.1 µM [rising, single point] | 15.8 µM [rising, partial curve, poor fit]
CC(CNC(=O)C1CCN(S(=O)(=O)c2ccc3c(ccn3C)c2)CC1)c1ccccc1 (centres undefined) |  | 14.1 µM [falling, partial curve, poor fit]
O=C(Nc1ncc(Cc2ccccc2Cl)s1)C1CCCO1 (centres undefined) | 7.94 µM [rising, partial curve] | 
O=c1oc2ccccc2c(NC(c2ccccc2)c2ccccc2)c1[N+](=O)[O-] | 31.6 µM [rising, single point] | 31.6 µM [rising, single point]
COC(=O)C(C(=O)OC)C(C[N+](=O)[O-])c1ccc(O)c(OC)c1 (centres undefined) | 10 µM [rising, partial curve] | 
C=CCNC(=O)NC(=O)CSc1nc2cc([N+](=O)[O-])ccc2n1-c1cccc(C(F)(F)F)c1 | 0.501 µM [rising, partial curve, poor fit] | 

Four entries from above, with each value named.
O=C(Nc1ncc(Cc2ccccc2Cl)s1)C1CCCO1 (centres undefined)
  AC50 [1]: 7.94 µM [rising, partial curve]
O=c1oc2ccccc2c(NC(c2ccccc2)c2ccccc2)c1[N+](=O)[O-]
  AC50 [1]: 31.6 µM [rising, single point]
  AC50 [2]: 31.6 µM [rising, single point]
COC(=O)C(C(=O)OC)C(C[N+](=O)[O-])c1ccc(O)c(OC)c1 (centres undefined)
  AC50 [1]: 10 µM [rising, partial curve]
C=CCNC(=O)NC(=O)CSc1nc2cc([N+](=O)[O-])ccc2n1-c1cccc(C(F)(F)F)c1
  AC50 [1]: 0.501 µM [rising, partial curve, poor fit]

Following part.

SMILES | AC50 [1] | AC50 [2]
O=C(CN1C(=O)/C(=C/c2cccc(Br)c2)SC1=S)Nc1cccnc1 |  | 8.91 µM [falling, partial curve, poor fit]
Nc1nc(CSc2ccc(Cl)cc2)nc(N2CCCCC2)n1 |  | 4.47 µM [rising, partial curve, poor fit]
CCCCCCCNC(=O)C1CC(=O)N(C)C(=Nc2ccc(OC)cc2)S1 (centres undefined) | 20 µM [rising, partial curve] | 12.6 µM [rising, partial curve]
CC(=O)c1cccc(NC(=S)NCCC2=CCCCC2)c1 | 35.5 µM [rising, partial curve] | 28.2 µM [rising, partial curve]
O=C(Cn1c(SCc2ccccc2F)nc2cccnc21)Nc1ccc(F)c(Cl)c1 |  | 39.8 µM [falling, partial curve, poor fit]
Cc1ccc(C(=O)N2CCc3cc(CNC(=O)CCc4ccccc4)ccc32)cc1 |  | 10 µM [falling, partial curve]
CCC(=O)[C@@]1(C)[C@H](C)C[C@@H]2[C@@H]3CCC4=CC(=O)C=C[C@@]4(C)[C@H]3[C@H](O)C[C@]21C | 8.91 µM [falling, partial curve, poor fit] | 12.6 µM [falling, single point]
O=C(NCc1cccnc1)/C(=C\c1ccc(-c2ccc(Br)cc2)o1)S(=O)(=O)c1ccccc1 |  | 35.5 µM [falling, single point]
CCc1nc2ccc(C(=O)NCc3cccc(Br)c3)cc2nc1CC | 1.26 µM [falling, partial curve, poor fit] | 3.16 µM [falling, single point]
COc1ccc(OCCC(=O)OCC(=O)NCCC2=CCCCC2)cc1 |  | 0.794 µM [rising, full curve, poor fit]
O=C(CN1CCN(c2ccccn2)CC1)N1c2ccccc2Sc2ccc(C(F)(F)F)cc21 | 12.6 µM [rising, partial curve] | 
NS(=O)(=O)c1ccc(CCNC(=O)C(=O)c2c[nH]c3ccccc23)cc1 | 0.1 µM [rising, full curve] | 
COCCCN(C(=S)Nc1cc(C)cc(C)c1)C(C)c1ccncc1 (centres undefined) | 0.0282 µM [rising, full curve, poor fit] | 
O=[N+]([O-])c1cc(-c2nnc(Nc3ccccc3)c3ccccc23)ccc1N1CCOCC1 | 11.2 µM [rising, partial curve, poor fit] | 
CC(C)(C)n1nnnc1C(c1cccs1)N(Cc1ccccc1)Cc1ccco1 (centres undefined) | 22.4 µM [rising, single point] | 15.8 µM [rising, single point]
COc1c(C)cc(Br)cc1C(=O)Nc1cccc(-c2nc3ncccc3o2)c1 | 17.8 µM [rising, single point] | 25.1 µM [rising, single point]
Cc1cccc(CSc2nc3sc(C)c(C)c3c(=O)n2Cc2ccco2)c1 | 3.98 µM [falling, single point] | 3.98 µM [falling, single point]
O=C(c1cnc(N2CCCCC2)c2ccccc12)N1CCN(c2cccc(Cl)c2)CC1 | 35.5 µM [falling, single point] | 35.5 µM [falling, single point]
COCCCNC(=O)c1nn(-c2ccc(C)cc2)c(=O)n(C)c1=O |  | 14.1 µM [rising, partial curve, poor fit]
CC1CN(C(=O)Cc2ccc(-c3ccccc3)cc2)CC(C)O1 (centres undefined) |  | 14.1 µM [rising, single point]
COc1ccc(OC)c(S(=O)(=O)N2CCC(C(=O)NC(C)c3ccccc3)CC2)c1 (centres undefined) |  | 35.5 µM [rising, single point]
CC(C)(C)CC(C)(C)NC(=S)Nc1ccc(S(=O)(=O)N2CCOCC2)cc1 | 35.5 µM [rising, single point] | 
COCCn1c(=O)c(-c2cccs2)nc2cnc(N3CCNCC3)nc21 |  | 14.1 µM [falling, partial curve, poor fit]
C=CCn1c(O)c(N=NC(=S)Nc2ccccc2F)c2cc(S(=O)(=O)N3CCOCC3)ccc21 | 20 µM [falling, partial curve] | 
Cc1cccn2c(NCc3ccc4c(c3)OCO4)c(-c3ccc(O)cc3)nc12 |  | 25.1 µM [falling, partial curve, poor fit]
CCOc1cc(/C=N/N=C(N)N)ccc1OCc1ccc(Cl)cc1 | 17.8 µM [rising, single point] | 12.6 µM [rising, single point]
CCNC(=O)C1CCN(Cc2cc3ccccc3n2Cc2ccc(C)cc2)CC1 |  | 11.2 µM [falling, partial curve]
